Reference: PubChem BioAssay AID1259327 (Drosophila RNAi Screening Center, 2017)

Test: 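Baseline ATP after transmembrane-protein gene knock-down with water vehicle only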
Cell system: Drosophila S2R+ cells
Knock-down reagent: long dsRNA against Drosophila genes
Timing: 5 days (water added on day 4, read one day later)
Conditions: water added as vehicle, no metal, one day before read-out
Measurement: 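Total ATP measured by luciferase light, scaled to plate mean, duplicates averaged, then z-scored across plates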
Scale: ATP z-score: higher = more total ATP than typical wells; ATP luminescence: higher = more total ATP
Active means: 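Called active when the ATP z-score exceeds 1.5 or falls below -1.5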
Meaning of the calls: active = hit: ATP up or down; inactive = no clear ATP change
Shown is a random part of about 3,100 reagents tested. 378 of them (12%) count as active. 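Hits include both directions; z-score sign shows ATP rise or fall; raw luminescence values are not plate-normalised.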 A plus sign joins genes that one reagent is predicted to hit. Not given: the amount of reagent.

With knock-down of CG15923 [DRSC15129], the screen gave ATP z-score, duplicate mean -0.349; ATP luminescence, replicate 1 (RLU) = 7.08e5; ATP luminescence, replicate 2 (RLU) = 6.32e5; inactive.
Silencing of bw [DRSC04005] gave: ATP z-score, duplicate mean -0.413; ATP luminescence, replicate 1 (RLU) = 6.45e5; ATP luminescence, replicate 2 (RLU) = 7.54e5; inactive.
For bw [DRSC04677] the deposit lists ATP z-score, duplicate mean 0.0879; ATP luminescence, replicate 1 (RLU) = 7.32e5; ATP luminescence, replicate 2 (RLU) = 7.49e5; inactive.
CG11737 [DRSC14364] gave ATP z-score, duplicate mean 1.96; ATP luminescence, replicate 1 (RLU) = 3.59e5; ATP luminescence, replicate 2 (RLU) = 1.05e6; active.
Knock-down of out [DRSC19347] came out at: ATP z-score, duplicate mean 0.122; ATP luminescence, replicate 1 (RLU) = 7.56e5; ATP luminescence, replicate 2 (RLU) = 6.81e5; inactive.
Depletion of out [DRSC28913] gave: ATP z-score, duplicate mean -1.02; ATP luminescence, replicate 1 (RLU) = 7.83e5; ATP luminescence, replicate 2 (RLU) = 6.25e5; inactive.
With knock-down of CG8389 [DRSC22855] the results were ATP z-score, duplicate mean -0.289; ATP luminescence, replicate 1 (RLU) = 6.03e5; ATP luminescence, replicate 2 (RLU) = 5.07e5; inactive.
After knock-down of CG8389 [DRSC28233], the record shows ATP z-score, duplicate mean -0.405; ATP luminescence, replicate 1 (RLU) = 8.11e5; ATP luminescence, replicate 2 (RLU) = 7.40e5; inactive.
fz4 [DRSC18780] gave ATP z-score, duplicate mean -0.897; ATP luminescence, replicate 1 (RLU) = 5.57e5; ATP luminescence, replicate 2 (RLU) = 7.69e5; inactive.
Against CG7091 [DRSC12944], the values are ATP z-score, duplicate mean -0.433; ATP luminescence, replicate 1 (RLU) = 2.92e5; ATP luminescence, replicate 2 (RLU) = 6.83e5; inactive.
For CG7091 [DRSC16197], the entry reads ATP z-score, duplicate mean -0.727; ATP luminescence, replicate 1 (RLU) = 2.67e5; ATP luminescence, replicate 2 (RLU) = 6.81e5; inactive.
Tspo + rempA [DRSC00533] showed ATP z-score, duplicate mean 0.385; ATP luminescence, replicate 1 (RLU) = 4.89e5; ATP luminescence, replicate 2 (RLU) = 5.24e5; inactive.
For Glut3 [DRSC16681], the values are ATP z-score, duplicate mean 0.389; ATP luminescence, replicate 1 (RLU) = 3.15e5; ATP luminescence, replicate 2 (RLU) = 8.08e5; inactive.
With knock-down of Glut3 [DRSC26249] the results were ATP z-score, duplicate mean -0.961; ATP luminescence, replicate 1 (RLU) = 6.43e5; ATP luminescence, replicate 2 (RLU) = 8.20e5; inactive.
Silencing of Picot [DRSC07508] came out at: ATP z-score, duplicate mean 0.387; ATP luminescence, replicate 1 (RLU) = 7.93e5; ATP luminescence, replicate 2 (RLU) = 7.51e5; inactive.
Picot [DRSC24256] scored ATP z-score, duplicate mean -0.0989; ATP luminescence, replicate 1 (RLU) = 8.14e5; ATP luminescence, replicate 2 (RLU) = 8.62e5; inactive.
